Measured values: patent US4116950A (Hoffmann-La Roche Inc., priority 1978, dated 1978)

Test: general procedure: Boc solid-phase peptide synthesis; Boc-glycyl copolystyrene-divinylbenzene resin (chloromethylated polystyrene cross-linked with 1 to 2% divinyl benzene); preformed symmetrical anhydrides of Boc-amino acids; Boc-asparagine with 1-hydro
Settings: whole synthesis
[1] = scale of the general procedure 0.60 mmol glycine, 0.12 mmol for final seven residues

| Substance | isolated yield [1] [%] | isolated yield (based on starting Boc-glycyl resin, scale 0.060 mmol) [%] | crude mass (scale 0.060 mmol) [mg] | isolated mass (scale 0.060 mmol, run 1) |
| --- | --- | --- | --- | --- |
| [Nle^5, Phe^27, Gly^31 ] - βh -EP | 28 |  |  |  |
| [Phe^27, Gly^31 ] - βh -EP (YGGFMTSEKSQTPLVTLFKNAIIKNAFKKGG; Beta-endorphin; UniProt P01189 237-267, looked up, variant Y27F E31G) |  | 14.4 | 97 | 41.2 mg and 29.2 mg |
| [D-Thr^2, Phe^27, Gly^31 ] - βh EP | 21 |  |  |  |
| [Ala^6,7, Phe^27, Gly^31 ] - βh -EP (YGGFMAAEKSQTPLVTLFKNAIIKNAFKKGG; Beta-endorphin; UniProt P01189 237-267, looked up, variant T6A S7A Y27F E31G) | 10 |  |  |  |

Where “and” joins values, the source holds several entries; their conditions need not be identical. Identical values can stand only once.
